# Source: patent publication US7935724B2, “Thiophene and benzothiophene hydroxamic acid derivatives” (Merck HDAC Research, LLC, priority 2003, dated 2011)
# By UniProt entry, the sequences of proteins in these tests, tags left out.
# UniProt Q13547, whole entry: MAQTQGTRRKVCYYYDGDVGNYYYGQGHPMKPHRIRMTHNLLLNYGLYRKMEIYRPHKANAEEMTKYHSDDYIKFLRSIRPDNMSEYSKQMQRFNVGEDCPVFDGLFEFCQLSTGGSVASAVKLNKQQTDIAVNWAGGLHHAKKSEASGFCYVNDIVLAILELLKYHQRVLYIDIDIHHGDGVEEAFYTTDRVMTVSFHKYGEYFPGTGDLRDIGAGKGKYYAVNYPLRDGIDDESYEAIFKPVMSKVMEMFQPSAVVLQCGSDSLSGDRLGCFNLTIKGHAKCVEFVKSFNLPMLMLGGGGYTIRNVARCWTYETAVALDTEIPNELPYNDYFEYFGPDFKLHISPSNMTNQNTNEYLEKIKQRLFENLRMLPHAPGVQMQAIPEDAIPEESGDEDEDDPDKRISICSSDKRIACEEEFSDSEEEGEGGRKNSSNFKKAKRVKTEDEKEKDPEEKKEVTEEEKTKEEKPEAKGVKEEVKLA
# Target: histone deacetylase, subtype 1 (HDAC1) (Homo sapiens, UniProt Q13547)
# Assay: HDAC1-Flag assay (in vitro deacetylation assay)
# Conditions: read-out: HDAC Inhibition; Table 2, thiophene backbone; concentration for 50% inhibition of deacetylation; substrate at Km; unit inferred, text gives nm
smiles,measurement,value
O=C(/C=C/c1ccc(C(=O)NO)s1)Nc1cccc(OCc2ccccc2)c1,pIC50,6.10

# pIC50: −log10 of the molar value. The structures given here were assigned with low confidence; some may be wrong.
